# Results as given in PubChem BioAssay AID588497 (NMMLSC, 2011).
# In all, about 360,000 compounds went through this assay and about 780 (0.22%) were called active. Inconclusive results, whose numbers are uncertain, are shown with a selection of clear calls. No stated cut-off is given here; in the data, active means inhibition above about 35% (passing the limit was not always enough); inconclusive means no clear call, values can overlap the other calls.
# Test system: Botulinum neurotoxin type F light chain protease (Clostridium botulinum)
# Test: BoNT/F light chain protease inhibitors, primary screen, biochemical, flow cytometry, MLPCN library (AID 588497); further: plate controls were buffer without enzyme for full effect and enzyme alone for no effect
# Conditions: Multiplex microsphere protease cleavage assay, at 10 µM, hits give high values
row,Compound,inhibition
1,O=C(CCc1ccccc1)Nc1cccnc1Cl,active: 65.5%
2,Cc1ccc(C(=O)N/N=C/c2cccc3ccccc23)cn1,inconclusive: -15.9%
3,O=C(NCCCn1ccnc1)c1cccnc1,inconclusive: 9.2%
4,CCCCN(C)C1=CC2=CC(=C(C#N)C#N)CCC2CC1 (stereo unspecified),active: 109%
5,CC(C)CN(C(=O)COc1ccc(C(C)(C)C)cc1)C1CCS(=O)(=O)C1 (stereo unspecified),inconclusive: -8%
6,Cc1cc(N2CCC(C)CC2)nc2ccc(N3C(=O)CCC3=O)cc12,inactive: -10.3%
7,S=c1nc(Cc2ccccc2)[nH]c2ccccc12,active: 51.2%
8,COc1ccc(C=NCCC2(O)CC(C)N(C)CC2C)cc1 (stereo unspecified),active: 54.3%
9,COc1ccc(-c2csc(NC(=O)CN3C(=O)NC4(CCCC4)C3=O)n2)c(OC)c1,inconclusive: -3.7%
10,O=[N+]([O-])c1cnccc1Nc1ccc(Cl)cc1,inconclusive: 45.1%
11,O=C1C(Cl)=C(Nc2ccccc2O)C(=O)N1c1ccccc1,inactive: -6.2%
12,COC(=O)Nc1ccc(S(=O)(=O)NC2CCCCC2)cc1,inactive: 1.4%
13,Cc1cc(C)c(NC(=O)CNC(=O)COC(=O)C2=COCCO2)c(C)c1,inconclusive: 6.8%
14,COc1ccccc1/C=N\Nc1ccccc1[N+](=O)[O-],inconclusive: -8.5%
15,Cc1ccc(S(=O)(=O)Cc2ccc(C(=O)N3CCC4(CC3)OCCO4)o2)cc1,inactive: 2.3%
16,CS(=O)(=O)N1CCCC(C(=O)Nc2cccc(F)c2)C1 (stereo unspecified),inconclusive: -13.7%
17,Cc1cc(S(=O)(=O)Nc2ccc(C(=O)NCCN3CCOCC3)cc2)ccc1F,inactive: -10.7%
18,O=C(O)/C=C/C(=O)NCc1csc2ccccc12,inconclusive: 22.1%
19,CCCc1c(C(=O)Nc2ccc(F)cc2F)cnn1-c1ccccc1,inconclusive: -6.5%
20,CC(C)[C@H](NC(=O)c1ccccc1)C(=O)Nc1ccc2c(c1)OCO2,inconclusive: -10.6%
21,O=C(NCc1ccccc1)C1c2ccccc2OCC(=O)N1Cc1ccco1 (stereo unspecified),inactive: -5.3%
22,CCOC(=O)c1[nH]c(C)c(CN(CCc2ccc(OC)c(OC)c2)C(=O)CCCC(=O)O)c1C,inconclusive: -14.8%
23,CC(Oc1ccc(Cl)cc1Cl)/C(N)=N/O (stereo unspecified),inconclusive: -60.5%

# Another view of some results above:
row	Compound	inhibition
14	COc1ccccc1/C=N\Nc1ccccc1[N+](=O)[O-]	inconclusive: -8.5%
15	Cc1ccc(S(=O)(=O)Cc2ccc(C(=O)N3CCC4(CC3)OCCO4)o2)cc1	inactive: 2.3%

# Following part.

row,Compound,inhibition
1,COC(=O)CSc1nnc2c3c4c(sc3nc(-n3nc(C)cc3C)n12)COC(C)(C)C4,inconclusive: -5.2%
2,COC(=O)c1ccc(NC(=O)C(=O)c2c[nH]c3ccccc23)cc1,inconclusive: 3.2%
3,CCN1CCN(CC(=O)N2N=C(c3cccs3)CC2c2ccc(C)cc2)C(=O)C1=O (stereo unspecified),inactive: 4.7%
4,Cc1ccc(OCCC(=O)OCC(=O)N2CCN(S(=O)(=O)c3ccc(Cl)cc3)CC2)cc1,inconclusive: 7.7%
5,Cc1ccc(S(=O)(=O)c2c(N)n(CCCO)c3nc4ccccc4nc23)cc1,inactive: -2.3%
6,CCCCc1cc(=O)oc2c(C)c(OCc3nn[nH]n3)ccc12,inconclusive: 2%
7,Cc1ccsc1/C=N/NS(=O)(=O)c1ccc([N+](=O)[O-])cc1,inactive: -1.9%
8,CCOC(=O)c1c(NC(=O)CN2C(=O)NC3(CCCC3)C2=O)sc(C)c1CC,inconclusive: 6.7%
9,CCOC(=O)C1(CCOC)CCN(C/C=C/c2ccccc2OC)CC1,inconclusive: -0.9%
10,Cc1nc(CSc2n[nH]c(=O)n2-c2cccc(F)c2)cs1,inconclusive: 65.4%
11,N/N=C(\c1ccccc1)c1cc(Cl)ccc1N,inconclusive: 28.4%
12,CCCCc1c(C)nc2cc(-c3ccco3)[nH]n2c1=O,inconclusive: 39.4%
13,CCCc1cc(Nc2ccc(C)cc2)n2ncnc2n1,inconclusive: -18.6%
14,O=C1/C(=C\c2cc(Br)cc(Br)c2O)SC(=S)N1Cc1ccccc1,inconclusive: -18.7%
15,Cc1cccc(NC(=O)[C@H](Cc2c[nH]c3ccccc23)NC(=O)[C@@H]2Cc3ccccc3CN2)c1,inactive: -10.4%
16,Cc1ccc([C@@H]2C[C@H]3[C@@H](CN2S(=O)(=O)c2ccc(C)cc2)C(=O)C[C@@H](c2ccc(C)cc2)N3S(=O)(=O)c2ccc(Cl)cc2)cc1,inactive: -0.9%
17,OCCc1c[nH]c2ccc(OCc3ccccc3)cc12,inconclusive: -2.5%
18,O=C(Nc1ccc(F)c(Cl)c1)c1ccccc1NC(=O)C1CCCCC1C(=O)O (stereo unspecified),inconclusive: 19.1%
19,O=C(Nc1cc([N+](=O)[O-])ccc1O)c1cccc(NC(=O)c2ccco2)c1,inconclusive: -16.5%
20,CCC1C(c2ccccc2)NC(c2ccccc2)CC1(O)c1ccc(F)cc1 (stereo unspecified),inconclusive: -6.6%
21,Cc1oc(C(C)(C)C)cc1C(=O)Nc1ccc(N2CCOCC2)cc1,inconclusive: -56.6%
22,CCOc1ccc(NC(=O)CC(=O)Nc2ccc(OCC)cc2)cc1,inconclusive: -31.5%
23,COc1ccc(CC(=O)Oc2cc(C)ccc2C)cc1,inconclusive: -11.2%

# Of the compounds above, these contain an aryl thioether with sulfur outside any ring.
row,Compound,inhibition
1,COC(=O)CSc1nnc2c3c4c(sc3nc(-n3nc(C)cc3C)n12)COC(C)(C)C4,inconclusive: -5.2%
10,Cc1nc(CSc2n[nH]c(=O)n2-c2cccc(F)c2)cs1,inconclusive: 65.4%
